# Measurements: publication PMC5050486 (Scientific Reports, 2016)
# Amino acid sequences for entries named in this document (tags omitted). Residues count along the entry.
# UniProt P09958, 108-794: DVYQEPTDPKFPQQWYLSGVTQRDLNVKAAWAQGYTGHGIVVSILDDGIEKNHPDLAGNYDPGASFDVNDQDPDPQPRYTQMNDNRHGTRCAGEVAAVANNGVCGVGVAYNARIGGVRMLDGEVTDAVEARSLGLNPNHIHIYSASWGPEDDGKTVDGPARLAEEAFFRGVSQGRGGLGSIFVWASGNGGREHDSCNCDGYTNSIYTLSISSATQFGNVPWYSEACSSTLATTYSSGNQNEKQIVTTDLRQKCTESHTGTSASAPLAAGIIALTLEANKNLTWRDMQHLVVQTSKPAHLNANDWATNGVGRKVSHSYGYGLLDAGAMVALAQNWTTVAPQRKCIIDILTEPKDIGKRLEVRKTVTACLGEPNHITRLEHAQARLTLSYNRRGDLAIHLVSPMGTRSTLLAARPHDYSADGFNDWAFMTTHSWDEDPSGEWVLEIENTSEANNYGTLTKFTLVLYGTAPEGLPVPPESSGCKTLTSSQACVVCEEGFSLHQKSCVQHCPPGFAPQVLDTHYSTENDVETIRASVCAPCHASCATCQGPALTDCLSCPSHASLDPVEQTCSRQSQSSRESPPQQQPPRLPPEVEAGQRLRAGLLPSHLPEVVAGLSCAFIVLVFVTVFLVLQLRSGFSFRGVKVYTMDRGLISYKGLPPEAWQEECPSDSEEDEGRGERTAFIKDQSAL
# UniProt P15917, 34-809 limits assumed: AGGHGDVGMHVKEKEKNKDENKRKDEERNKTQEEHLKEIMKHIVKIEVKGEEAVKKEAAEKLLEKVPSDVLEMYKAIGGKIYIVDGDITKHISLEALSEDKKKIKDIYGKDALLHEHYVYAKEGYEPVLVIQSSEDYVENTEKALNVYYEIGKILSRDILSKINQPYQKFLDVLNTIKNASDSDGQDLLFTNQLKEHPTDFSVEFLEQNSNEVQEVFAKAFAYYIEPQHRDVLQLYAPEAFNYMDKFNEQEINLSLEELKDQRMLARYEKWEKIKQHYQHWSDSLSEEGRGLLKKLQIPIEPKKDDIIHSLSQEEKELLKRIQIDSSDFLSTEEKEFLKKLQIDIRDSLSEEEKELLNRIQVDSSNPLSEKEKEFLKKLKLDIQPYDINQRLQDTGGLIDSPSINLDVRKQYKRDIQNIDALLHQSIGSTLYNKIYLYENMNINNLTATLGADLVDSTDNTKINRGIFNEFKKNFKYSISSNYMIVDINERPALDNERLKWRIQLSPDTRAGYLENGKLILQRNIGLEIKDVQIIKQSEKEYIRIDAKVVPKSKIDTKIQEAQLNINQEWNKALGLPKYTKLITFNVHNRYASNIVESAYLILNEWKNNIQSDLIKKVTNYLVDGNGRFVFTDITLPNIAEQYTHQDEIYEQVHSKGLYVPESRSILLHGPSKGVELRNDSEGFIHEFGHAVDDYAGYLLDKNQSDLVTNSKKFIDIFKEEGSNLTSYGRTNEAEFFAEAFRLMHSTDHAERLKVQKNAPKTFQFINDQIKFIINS
# Experiments:
# human furin = biological target: T1, human furin (Homo sapiens, UniProt P09958); experiment: Host protease FRET test, furin; format: biochemical; conditions: 33 μM drug, N/I = no FRET inhibition
# T1 construct: purchased New England Biolabs
# caspase-1 = biological target: T2, caspase-1 (Homo sapiens, UniProt P29466); experiment: Host protease FRET test, caspase-1; format: biochemical; conditions: 33 μM drug, N/I = no FRET inhibition, read-out: Percent Inhibition with 33 μM of drug, Casp 1
# T2 construct: purchased BioVision
# T2 sequence (P29466 120-404): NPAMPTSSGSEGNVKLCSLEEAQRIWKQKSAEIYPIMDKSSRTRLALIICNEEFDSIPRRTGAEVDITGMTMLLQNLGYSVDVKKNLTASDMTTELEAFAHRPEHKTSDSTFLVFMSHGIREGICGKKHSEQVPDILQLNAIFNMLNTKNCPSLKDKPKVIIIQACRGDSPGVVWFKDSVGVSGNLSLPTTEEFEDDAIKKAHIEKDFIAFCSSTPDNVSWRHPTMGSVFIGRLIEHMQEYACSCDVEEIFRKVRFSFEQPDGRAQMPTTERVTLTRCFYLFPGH
# caspase-3 = biological target: T3, caspase-3 (Homo sapiens, UniProt P42574); experiment: Host protease FRET test, caspase-3; format: biochemical; conditions: 33 μM drug, N/I = no FRET inhibition, read-out: Percent Inhibition with 33 μM of drug, Casp 3
# T3 construct: purchased BioVision
# T3 sequence (P42574 29-277): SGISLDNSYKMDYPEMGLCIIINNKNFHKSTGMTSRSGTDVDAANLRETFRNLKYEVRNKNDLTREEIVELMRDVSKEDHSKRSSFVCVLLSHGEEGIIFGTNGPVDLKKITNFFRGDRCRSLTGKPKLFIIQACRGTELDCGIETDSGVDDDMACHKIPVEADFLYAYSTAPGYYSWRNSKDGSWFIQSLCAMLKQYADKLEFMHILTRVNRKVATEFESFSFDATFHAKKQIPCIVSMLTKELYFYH
# anthrax LF = anthrax LF (Bacillus anthracis, UniProt P15917); experiment: biochemical
# calpain 1 = biological target: T4, calpain 1 (Homo sapiens, UniProt P07384); experiment: Host protease FRET test, calpain; format: biochemical; conditions: 33 μM drug, N/I = no FRET inhibition
# T4 construct: purchased BioVision
# T4 sequence (P07384 1-714): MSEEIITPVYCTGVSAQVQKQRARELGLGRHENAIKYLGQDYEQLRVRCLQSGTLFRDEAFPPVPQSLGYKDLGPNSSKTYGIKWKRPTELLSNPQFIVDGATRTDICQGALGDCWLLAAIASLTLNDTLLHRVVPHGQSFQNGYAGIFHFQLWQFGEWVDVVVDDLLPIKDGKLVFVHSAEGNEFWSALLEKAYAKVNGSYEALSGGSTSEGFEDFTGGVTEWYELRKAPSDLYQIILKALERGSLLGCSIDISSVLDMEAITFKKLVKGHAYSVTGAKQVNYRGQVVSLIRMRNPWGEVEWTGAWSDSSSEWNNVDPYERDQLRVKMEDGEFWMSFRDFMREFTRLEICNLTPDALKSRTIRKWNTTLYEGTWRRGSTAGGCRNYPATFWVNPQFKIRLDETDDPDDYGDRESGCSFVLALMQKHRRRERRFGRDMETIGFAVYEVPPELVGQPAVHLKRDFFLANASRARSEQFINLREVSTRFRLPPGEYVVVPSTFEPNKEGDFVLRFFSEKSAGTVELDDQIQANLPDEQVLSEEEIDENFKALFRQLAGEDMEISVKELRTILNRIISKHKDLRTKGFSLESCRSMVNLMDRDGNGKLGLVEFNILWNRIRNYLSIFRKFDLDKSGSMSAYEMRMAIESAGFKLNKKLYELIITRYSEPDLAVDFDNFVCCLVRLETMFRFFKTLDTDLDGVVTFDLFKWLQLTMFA
# T4 sequence (P04632 1-268 partner): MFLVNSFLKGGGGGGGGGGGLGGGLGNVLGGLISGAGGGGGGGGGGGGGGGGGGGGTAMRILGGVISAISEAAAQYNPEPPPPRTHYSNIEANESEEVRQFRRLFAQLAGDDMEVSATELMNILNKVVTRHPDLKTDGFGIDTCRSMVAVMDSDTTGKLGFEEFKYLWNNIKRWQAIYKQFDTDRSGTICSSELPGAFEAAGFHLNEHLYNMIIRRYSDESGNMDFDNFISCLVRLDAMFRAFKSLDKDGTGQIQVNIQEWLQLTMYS
# cathepsin B = cathepsin B (Homo sapiens, UniProt P07858); experiment: Host protease FRET test, cathepsin B; format: biochemical; conditions: 33 μM drug, N/I = no FRET inhibition
compound,measurement,setting,value
CCCCCCCCCCCCCCCC[n+]1ccccc1 [Cetylpyridinium bromide],"Percent Inhibition with 33 μM of drug, Furin",human furin,N/I*
same,inhibition at 33 µM,caspase-1,14 ± 6.59%
same,inhibition at 33 µM,caspase-3,84 ± 2.7%
same,IC50,anthrax LF,0.36 ± 0.09 µM
same,inhibition at 33 µM,"anthrax LF; read-out: Percent Inhibition with 33 μM of drug, LF",107 ± 1.07%
same,"Percent Inhibition with 33 μM of drug, Calpain",calpain 1,N/I
same,"Percent Inhibition with 33 μM of drug, Cath B",cathepsin B,N/I
